Results are given in words; binding and its absence hold for the method and conditions named. For some of these results: Binding seen in cells or lysates may run through a third protein. Some entries that bind do so weakly or less than the wild type.
Columns and labels:
[1] = biological target: Endogenous ARNT of mouse kidney (UUO-challenged C57BL/6 mice) (mouse (endogenous in kidney)) (UniProt P53762); experiment: native gel or EMSA; endogenous ARNT pull-down from total kidney lysates of UUO mice given LB100, FK506, GPI1046 or combinations; Blue Native PAGE, immunoblot with ARNT antibody
[2] = biological target: Endogenous ARNT of mouse kidney (UUO-challenged C57BL/6 mice) (mouse (endogenous in kidney)) (UniProt P53762); experiment: condition: only vehicle-treated mice, without LB100; native MS; liquid native MALDI mass spectrometry of endogenous ARNT pulled down from total kidney lysates of vehicle-treated UUO mice; eluted in 0.3% TFA, mixed with ammonium acetate buffer (100 mM, pH 9), glycerol
[3] = biological target: Ser77/Asp-mutant ARNT, myc-tagged and EGFP-tagged copies co-expressed (mouse) (UniProt P53762); experiment: proximity ligation; HEK293 cells co-transfected with EGFP- and myc-tagged constructs, 5 µM LB100 for 4 h, fixed in methanol; EGFP and myc-tag antibodies, Duolink In Situ Red kit
[4] = biological target: Ser77/Asp-mutant ARNT, myc-tagged and EGFP-tagged copies co-expressed (mouse) (UniProt P53762); experiment: co-IP; HEK293 cells co-transfected with myc-tagged and EGFP-tagged ARNT; immunoprecipitation with myc or EGFP antibodies, immunoblot; cells treated 4 h with DMSO, LB100 (5 µM), okadaic acid (50 nM) or tautomycetin (200 nM)

Chains of the proteins cited; added tags and fusions are not shown. Lines headed by an entry give the natural chain unless they say otherwise; changes in a name come on top. A line that says so, or that is headed by a name, gives the form on record, which may keep a tag or linker.
UniProt P53762: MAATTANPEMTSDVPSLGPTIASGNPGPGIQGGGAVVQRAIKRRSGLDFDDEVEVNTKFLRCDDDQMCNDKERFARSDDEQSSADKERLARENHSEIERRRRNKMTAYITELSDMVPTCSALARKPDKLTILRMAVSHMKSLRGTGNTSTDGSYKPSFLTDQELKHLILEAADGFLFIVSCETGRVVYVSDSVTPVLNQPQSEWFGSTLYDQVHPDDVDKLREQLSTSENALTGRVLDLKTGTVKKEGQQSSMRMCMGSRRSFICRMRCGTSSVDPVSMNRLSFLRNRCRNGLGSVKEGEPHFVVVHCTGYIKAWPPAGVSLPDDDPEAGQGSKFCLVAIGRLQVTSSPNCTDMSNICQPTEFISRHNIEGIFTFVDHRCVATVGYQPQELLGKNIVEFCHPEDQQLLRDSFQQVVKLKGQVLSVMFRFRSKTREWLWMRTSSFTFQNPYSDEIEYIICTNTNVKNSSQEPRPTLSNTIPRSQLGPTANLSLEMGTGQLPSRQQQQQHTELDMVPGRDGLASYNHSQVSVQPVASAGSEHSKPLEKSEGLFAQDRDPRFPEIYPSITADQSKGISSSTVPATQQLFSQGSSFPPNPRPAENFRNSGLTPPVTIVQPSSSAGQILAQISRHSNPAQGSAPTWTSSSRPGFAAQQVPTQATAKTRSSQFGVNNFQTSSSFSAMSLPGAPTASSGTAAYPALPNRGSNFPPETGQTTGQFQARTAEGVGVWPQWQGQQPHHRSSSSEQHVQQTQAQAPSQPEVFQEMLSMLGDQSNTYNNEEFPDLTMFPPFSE
Ser77/Asp-mutant ARNT, myc-tagged and EGFP-tagged copies co-expressed (P53762, form named): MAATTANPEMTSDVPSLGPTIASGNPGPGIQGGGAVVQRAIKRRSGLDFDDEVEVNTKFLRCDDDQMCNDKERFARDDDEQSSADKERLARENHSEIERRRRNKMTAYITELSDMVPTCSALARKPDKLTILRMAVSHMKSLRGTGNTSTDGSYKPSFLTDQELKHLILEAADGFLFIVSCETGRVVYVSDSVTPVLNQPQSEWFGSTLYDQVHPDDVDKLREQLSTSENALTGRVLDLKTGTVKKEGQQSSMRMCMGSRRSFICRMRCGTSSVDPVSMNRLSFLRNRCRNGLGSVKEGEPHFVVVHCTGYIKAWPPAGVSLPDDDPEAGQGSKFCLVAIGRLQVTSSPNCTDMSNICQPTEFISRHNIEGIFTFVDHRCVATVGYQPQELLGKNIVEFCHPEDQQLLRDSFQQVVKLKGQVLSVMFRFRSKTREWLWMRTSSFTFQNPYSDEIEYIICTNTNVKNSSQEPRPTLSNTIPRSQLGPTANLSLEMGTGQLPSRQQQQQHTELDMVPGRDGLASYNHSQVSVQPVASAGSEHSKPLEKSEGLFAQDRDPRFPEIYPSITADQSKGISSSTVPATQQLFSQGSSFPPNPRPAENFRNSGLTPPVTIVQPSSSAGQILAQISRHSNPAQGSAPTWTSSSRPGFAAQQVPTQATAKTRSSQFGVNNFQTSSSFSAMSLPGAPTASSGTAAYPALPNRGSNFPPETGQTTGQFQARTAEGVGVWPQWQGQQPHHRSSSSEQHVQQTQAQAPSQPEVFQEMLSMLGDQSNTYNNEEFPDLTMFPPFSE

Substance | binding [1] | binding [2] | binding [3] | binding [4]
Endogenous ARNT of mouse kidney (UUO-challenged C57BL/6 mice) (from UniProt P53762 1-791) | binds | no binding | – | –
Ser77/Asp-mutant ARNT, myc-tagged and EGFP-tagged copies co-expressed (from UniProt P53762 1-791) | – | – | no binding | no binding

Source: PMC8674365
